Like-named read-outs stand apart in the source and are kept apart here. These are yes or no findings as the source states them, for the method shown. In cells and extracts the contact can be indirect. Some results given as binding are weak or reduced against the parent protein; the word gives no strength.

Sequences of proteins named here, by UniProt entry; tags and fusion partners are left off. Residues count along the entry.
UniProt Q08199, residues 20-421: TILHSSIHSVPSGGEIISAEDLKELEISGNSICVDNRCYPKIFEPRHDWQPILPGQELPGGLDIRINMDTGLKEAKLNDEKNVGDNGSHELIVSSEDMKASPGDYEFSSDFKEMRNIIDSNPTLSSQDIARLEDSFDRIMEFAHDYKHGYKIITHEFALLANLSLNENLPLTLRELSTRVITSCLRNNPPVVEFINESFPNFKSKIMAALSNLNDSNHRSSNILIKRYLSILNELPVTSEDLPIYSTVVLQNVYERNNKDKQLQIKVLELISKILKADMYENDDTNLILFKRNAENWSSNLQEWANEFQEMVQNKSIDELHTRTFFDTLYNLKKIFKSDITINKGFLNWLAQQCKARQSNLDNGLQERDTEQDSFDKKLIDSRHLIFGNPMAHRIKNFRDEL
UniProt Q03195: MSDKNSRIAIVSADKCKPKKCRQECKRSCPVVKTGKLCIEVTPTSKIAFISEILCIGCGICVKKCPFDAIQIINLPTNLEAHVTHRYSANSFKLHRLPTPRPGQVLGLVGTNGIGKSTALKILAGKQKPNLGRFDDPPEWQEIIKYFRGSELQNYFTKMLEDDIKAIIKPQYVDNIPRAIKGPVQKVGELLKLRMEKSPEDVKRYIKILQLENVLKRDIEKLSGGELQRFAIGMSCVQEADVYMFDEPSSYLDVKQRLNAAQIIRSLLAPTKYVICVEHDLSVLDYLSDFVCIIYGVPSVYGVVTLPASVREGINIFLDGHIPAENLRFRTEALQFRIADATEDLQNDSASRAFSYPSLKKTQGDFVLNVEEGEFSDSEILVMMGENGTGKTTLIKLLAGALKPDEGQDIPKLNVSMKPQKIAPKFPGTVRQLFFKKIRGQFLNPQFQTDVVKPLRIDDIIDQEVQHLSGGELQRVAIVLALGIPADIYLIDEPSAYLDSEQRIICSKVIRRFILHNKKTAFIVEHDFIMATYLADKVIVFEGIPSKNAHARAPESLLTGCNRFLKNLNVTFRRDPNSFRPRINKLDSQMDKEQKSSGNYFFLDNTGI

Holding throughout (assay): split reporter
One assay addresses Sil1p (S. cerevisiae) (UniProt Q08199).
Assay [1] deals with Rli1p (yeast) (UniProt Q03195).
Assay [2] concerns the target Rli1p (yeast) (UniProt Q03195). The source holds these as a separate data set.

B1: Scj1p (protein, UniProt P25303 22-377)
chain: QDYYAILEIDKDATEKEIKSAYRQLSKKYHPDKNAGSEEAHQKFIEVGEAYDVLSDPEKKKIYDQFGADAVKNGGGGGGPGGPGAGGFHDPFDIFERMFQGGHGGPGGGFGQRQRQRGPMIKVQEKLSLKQFYSGSSIEFTLNLNDECDACHGSGSADGKLAQCPDCQGRGVIIQVLRMGIMTQQIQQMCGRCGGTGQIIKNECKTCHGKKVTKKNKFFHVDVPPGAPRNYMDTRVGEAEKGPDFDAGDLVIEFKEKDTENMGYRRRGDNLYRTEVLSAAEALYGGWQRTIEFLDENKPVKLSRPAHVVVSNGEVEVVKGFGMPKGSKGYGDLYIDYVVVMPKTFKSGQNMLKDEL
Take B1: in the assay with Sil1p (S. cerevisiae), the binding entry is recorded as “binds”.

B2: Yae1p (protein, UniProt P47118 1-141)
chain: MSNTWDDVWASDSDVETERSPDLVKLRENHSKRGYLDGIVSSKEEKLQEGFNDGFPTGAKLGKQVGIIMGILLGLRTRFGDEDEDLSKAYIDAQKELRINKVLSKSIFDPNFDLQEKHPLITKWTDIANTYCEKYHVPSIQ
As to B2, the binding entry with Rli1p (yeast) [1] and with Rli1p (yeast) [2] was “no binding” each time.

The values above are taken from doi:10.1101/2024.05.21.594841.
